Source: publication PMC4221739
No constants are given. Whether binding was seen depends on the method and setting. In cells and extracts the contact can be indirect. For some assays here: Binding can be weak; no strength is given. Tags and fused reporters may be left off the sequences shown. Values belong to the molecule of their own block, whether it stands above or below them.

By UniProt entry, the sequences of proteins in these tests, tags left out. Where a name states a change or a piece, a line headed by the entry shows the natural chain unless it says otherwise.
UniProt P23258: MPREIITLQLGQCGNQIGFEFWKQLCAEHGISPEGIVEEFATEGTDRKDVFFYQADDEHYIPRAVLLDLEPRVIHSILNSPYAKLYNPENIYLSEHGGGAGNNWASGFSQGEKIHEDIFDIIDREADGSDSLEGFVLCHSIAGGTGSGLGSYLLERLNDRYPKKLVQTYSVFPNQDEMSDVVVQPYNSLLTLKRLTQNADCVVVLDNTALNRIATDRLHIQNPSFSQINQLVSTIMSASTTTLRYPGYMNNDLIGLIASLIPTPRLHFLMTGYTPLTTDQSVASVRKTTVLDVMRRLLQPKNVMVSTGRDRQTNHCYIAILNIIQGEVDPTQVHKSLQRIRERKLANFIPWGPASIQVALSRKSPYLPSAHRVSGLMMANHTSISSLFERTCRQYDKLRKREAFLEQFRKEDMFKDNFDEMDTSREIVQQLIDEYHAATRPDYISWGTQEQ

Legend:
[1] = target: T1, full-length SF-Dlg3 (Streptavidin-Flag-tagged Dlg3) (UniProt P70175); test: co-IP; SF-tagged Dlg3 variants precipitated on Strep-Tactin resin (Strep-IP) from lysates of serum starved, ciliated HEK293T cells co-transfected with Fltp-myc variants; lysis buffer 50 mM Tris/HCl pH 7.4, 150 mM NaCl, 2 mM EDTA, 1% Nonidet P-40; 1 hr at 4°C; desthiobiotin elution; western blot
T1 sequence: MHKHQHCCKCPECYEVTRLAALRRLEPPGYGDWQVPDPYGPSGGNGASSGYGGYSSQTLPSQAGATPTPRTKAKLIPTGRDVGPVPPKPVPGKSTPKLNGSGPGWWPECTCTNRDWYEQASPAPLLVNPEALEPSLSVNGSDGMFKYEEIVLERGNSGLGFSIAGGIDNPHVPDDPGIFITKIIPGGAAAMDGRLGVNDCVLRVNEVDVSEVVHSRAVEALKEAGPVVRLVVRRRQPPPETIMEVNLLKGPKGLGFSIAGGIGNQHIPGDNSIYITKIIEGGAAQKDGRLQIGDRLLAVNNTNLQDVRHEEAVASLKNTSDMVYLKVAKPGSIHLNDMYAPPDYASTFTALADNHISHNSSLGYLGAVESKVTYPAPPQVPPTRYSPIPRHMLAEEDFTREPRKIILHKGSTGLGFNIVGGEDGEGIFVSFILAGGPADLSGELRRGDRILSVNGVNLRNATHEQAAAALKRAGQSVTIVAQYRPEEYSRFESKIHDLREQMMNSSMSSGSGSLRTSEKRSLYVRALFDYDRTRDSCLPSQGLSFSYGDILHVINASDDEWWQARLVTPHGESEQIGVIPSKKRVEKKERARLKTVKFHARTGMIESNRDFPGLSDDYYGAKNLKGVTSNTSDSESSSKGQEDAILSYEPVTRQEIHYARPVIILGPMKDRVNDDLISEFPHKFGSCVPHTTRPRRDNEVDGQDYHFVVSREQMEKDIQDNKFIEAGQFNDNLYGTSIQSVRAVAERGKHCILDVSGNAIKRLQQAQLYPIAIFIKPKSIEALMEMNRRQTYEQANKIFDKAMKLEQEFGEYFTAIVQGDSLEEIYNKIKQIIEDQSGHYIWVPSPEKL

[2] = target: T2, SF full-length Fltp (Strep-Flag-tagged Flattop) (mouse) (UniProt Q6P8X9); test: co-IP; Strep-IP of SF Fltp and SF Dlg3 from lysates of transfected HEK293T cells; endogenous Dvl2 and γ-Tubulin detected by western blot; lysis buffer 50 mM Tris/HCl pH 7.4, 150 mM NaCl, 2 mM EDTA, 1% Nonidet P-40; 1 hr at 4°C
T2 sequence: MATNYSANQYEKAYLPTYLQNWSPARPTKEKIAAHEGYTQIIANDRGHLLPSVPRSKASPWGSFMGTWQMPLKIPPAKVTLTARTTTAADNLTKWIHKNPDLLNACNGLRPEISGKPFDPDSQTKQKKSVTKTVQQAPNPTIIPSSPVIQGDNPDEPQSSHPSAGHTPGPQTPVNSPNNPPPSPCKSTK

[3] = target: T1, full-length SF-Dlg3 (Streptavidin-Flag-tagged Dlg3); test: as above
[4] = target: SF-Dlg3ΔPDZ (UniProt P70175); test: co-IP; SF-tagged Dlg3 variants precipitated on Strep-Tactin resin (Strep-IP) from lysates of serum starved, ciliated HEK293T cells co-transfected with Fltp-myc variants; lysis buffer 50 mM Tris/HCl pH 7.4, 150 mM NaCl, 2 mM EDTA, 1% Nonidet P-40; 1 hr at 4°C; desthiobiotin elution; western blot
[5] = target: SF-Dlg3ΔSH3 (UniProt P70175); test: as above

binding [1]: no binding
Molecule: FΔNT (Fltp-myc variant lacking the N-terminus) (mouse) (domain or fragment)

binding [2]: binds | binding [3]: binds
Molecule: γ-Tubulin, endogenous (from UniProt P23258)

binding [4]: binds | binding [5]: binds
B1: full-length Fltp-myc (Flattop, myc-tagged) (protein, UniProt Q6P8X9 1-189)
chain: T2 sequence
